Results: US20190002562A1 (INTERVET, published 2019)
No constants are given. Whether binding was seen depends on the method and setting. Some results given as binding are weak or reduced against the parent protein; the word gives no strength. Where a sequence is shown, tags or fusion partners need not be part of it.

Target: T1, HIS-tagged canine PD-1 ECD protein (canine)
T1 construct: also called PD-1 HIS; canine PD-1 ECD-HIS tagged protein; not shown: HIS tag
T1 chain: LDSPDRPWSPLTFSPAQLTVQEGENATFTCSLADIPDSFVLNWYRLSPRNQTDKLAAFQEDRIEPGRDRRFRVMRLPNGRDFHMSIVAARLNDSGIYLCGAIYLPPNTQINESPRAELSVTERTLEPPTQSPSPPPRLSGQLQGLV
Assay: ELISA on the extracellular domain of canine PD-1

binding: binds
B1: 3B6 VH3 IgGB / VL3 (antibody, V domains shown)
VH: EVQLVQSGGDLVKPGGSVRLSCVASGYTFTTYGMSWVRQAPGKGLQWMGWINIYSGIPTYADDFKGRFTFSLDTAKNTAYLQLNSLRAEDTAVYYCTRFDGPDYWGQGTLVTVSS
VL: DIVMTQTPLSLSVSPGEPASMSCKSSQSLLNSVNQKNYLAWYRQKPGQSPQVLVYFASARVSGVPDRFIGSGSGTDFTLRISRVEADDLGVYYCQQYFSTPLTFGQGTKLELKR
notes: copies: 2 + 2
